From the supplement of paper PMC4894684 come the findings set out here.

The subject of one experiment is HFF. The experiment can be described thus: uninfected host cell viability relative to vehicle control; higher = less host cell toxicity. The note with it: 5 µM; 72 h; oxygen 21 %.
Experiment [1] relates to Toxoplasma gondii RH (in HFF). As to the kind of experiment: parasite growth relative to the screen mean (all compounds = 100%); higher = less inhibition of parasite growth. The conditions noted are these: 5 µM; 72 h; oxygen 21 %. The essentials:
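Values give growth relative to the screen mean. The screen mean (all compounds) is set at 100%, and two screens were averaged. Compounds at 5 µM final were placed on confluent human foreskin fibroblasts, which were infected within 2 h with RH β-Gal–GFP Toxoplasma (MOI 1:5) and kept 72 h at 21% O2 before a CPRG β-Gal readout against in-plate standard curves.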

± gives the standard deviation of the averaged measurements. For some assays here: What follows is the remainder of the data, with few or none of the strong results. The entries are a selection whose mix differs from that of the whole data set.
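Wherever uninfected host cell viability relative to vehicle control is given: confluent HFF monolayers, run in parallel with the Toxoplasma growth screen as a host toxicity counterscreen.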

For `O=C1NC(=O)c2c1c(-c1ccccc1)cc1[nH]c3ccc(O)cc3c21`, the “uninfected host cell viability” value in the experiment with HFF was 72.9 ± 1%. Moreover, the parasite growth in experiment [1] is < 0%.
